The values that follow come from PMC8396497.

These are yes or no findings as the source states them, for the method shown. In cells and extracts the contact can be indirect. Some binding calls cover weakened binding; strength is not graded here.

What all share (experiment): co-IP
The target in assay [1] is T1, flotillin-1 (mouse (endogenous in C57BL/6 mouse brain)) (UniProt O08917).
T1 sequence: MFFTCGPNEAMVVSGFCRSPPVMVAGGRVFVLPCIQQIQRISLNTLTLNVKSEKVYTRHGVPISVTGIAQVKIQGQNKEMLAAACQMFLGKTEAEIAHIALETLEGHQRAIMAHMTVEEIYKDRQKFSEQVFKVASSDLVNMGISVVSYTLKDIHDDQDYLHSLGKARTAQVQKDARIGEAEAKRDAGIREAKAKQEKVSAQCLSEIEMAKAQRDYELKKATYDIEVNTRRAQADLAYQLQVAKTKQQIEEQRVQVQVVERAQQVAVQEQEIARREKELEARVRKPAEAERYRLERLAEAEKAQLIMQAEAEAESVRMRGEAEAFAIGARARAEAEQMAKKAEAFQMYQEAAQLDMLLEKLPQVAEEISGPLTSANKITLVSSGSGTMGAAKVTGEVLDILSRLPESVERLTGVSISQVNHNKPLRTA

The target in assay [2] is T2, Cbl-associated protein (CAP) (mouse (endogenous in C57BL/6 mouse brain)) (UniProt Q62417).
T2 sequence: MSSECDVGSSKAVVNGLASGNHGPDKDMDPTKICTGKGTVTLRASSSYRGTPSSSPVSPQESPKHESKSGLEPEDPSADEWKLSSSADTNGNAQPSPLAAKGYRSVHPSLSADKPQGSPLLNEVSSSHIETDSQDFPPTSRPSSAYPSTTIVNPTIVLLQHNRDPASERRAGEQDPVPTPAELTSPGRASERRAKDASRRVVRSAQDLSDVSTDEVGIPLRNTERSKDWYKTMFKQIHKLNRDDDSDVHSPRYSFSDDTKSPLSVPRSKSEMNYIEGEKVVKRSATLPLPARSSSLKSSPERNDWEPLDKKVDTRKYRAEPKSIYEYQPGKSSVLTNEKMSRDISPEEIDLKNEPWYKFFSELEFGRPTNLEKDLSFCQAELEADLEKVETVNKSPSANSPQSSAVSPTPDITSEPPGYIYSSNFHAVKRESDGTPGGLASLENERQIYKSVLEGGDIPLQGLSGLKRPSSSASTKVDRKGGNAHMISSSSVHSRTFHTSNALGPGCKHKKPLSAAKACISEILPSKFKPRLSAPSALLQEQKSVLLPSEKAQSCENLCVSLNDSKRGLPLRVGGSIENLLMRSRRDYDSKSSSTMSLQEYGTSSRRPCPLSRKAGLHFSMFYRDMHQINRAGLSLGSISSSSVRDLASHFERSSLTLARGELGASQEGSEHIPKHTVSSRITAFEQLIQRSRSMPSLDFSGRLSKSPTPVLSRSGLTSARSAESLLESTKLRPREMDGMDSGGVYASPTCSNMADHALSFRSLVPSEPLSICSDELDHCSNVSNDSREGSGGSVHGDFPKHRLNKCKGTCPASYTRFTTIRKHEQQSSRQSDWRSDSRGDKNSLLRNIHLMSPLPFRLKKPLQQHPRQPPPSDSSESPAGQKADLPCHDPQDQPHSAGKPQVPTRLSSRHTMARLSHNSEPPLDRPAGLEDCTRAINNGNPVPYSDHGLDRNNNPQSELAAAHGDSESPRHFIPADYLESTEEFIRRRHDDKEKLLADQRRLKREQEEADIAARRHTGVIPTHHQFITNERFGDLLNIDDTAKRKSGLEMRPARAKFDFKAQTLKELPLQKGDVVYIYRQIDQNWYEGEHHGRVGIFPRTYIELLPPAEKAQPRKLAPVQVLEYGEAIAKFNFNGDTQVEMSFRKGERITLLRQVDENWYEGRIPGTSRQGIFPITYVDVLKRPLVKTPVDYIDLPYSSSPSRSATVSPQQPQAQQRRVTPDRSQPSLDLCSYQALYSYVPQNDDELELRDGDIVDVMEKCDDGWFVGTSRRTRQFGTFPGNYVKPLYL

In assay [3] the target is cellular prion protein (PrPc) (mouse (endogenous in C57BL/6 mouse brain)) (UniProt P04925).

For “cellular prion protein (PrPc) (from UniProt P04925 23-230)”, in assay [1], the binding result is “binds”.

B1: flotillin-1 (protein, UniProt O08917 1-428)
chain: T1 sequence
Consider B1, for which the binding entry in assay [2] and in assay [3] was “binds” each time.

B2: Cbl-associated protein (CAP) (protein, UniProt Q62417 1-1290)
chain: T2 sequence
In the case of B2, the binding result in assay [3] is “binds”.
